Measured values from patent US11927590B2, “Methods and systems for screening therapeutic compositions for treating age-related macular degeneration” (ARIZONA BOARD OF REGENTS ON BEHALF OF THE UNIVERSITY OF …, priority 2020, dated 2024).
For at least one compound, name, drawing or mass did not settle the structure.

Tested on: retinal pigment epithelial (RPE) cells
Test: RPE exosome release
Format: cell-based
Conditions: 30 minute treatment, 1 nM D2R agonist (FIG. 4B)
Source text: Exosomes released from retinal pigment epithelial (RPE) cells can be isolated. […] Cells and cell debris are removed and exosomes are then purified. Note the present invention is not limited to this particular method of exosome isolation. In certain embodiments of the present invention, exosomes are not isolated for the measurement of levels of exosomes released from RPE cells. […] FIG. 3B illustrates GPR143 exosome release and its inhibition by L-DOPA. FIG. 4A and FIG. 4B show RPE exosome release studies in response to 30 minute treatments with 1 μM dopamine (FIG. 4A), 1 nM Dopamine 2 receptor (D2R) agonist (bromocriptine, FIG. 4B), and 1 nM Dopamine 2 receptor ([…]) antagonist (raclopride, FIG. 4B).

## CC(C)C[C@H]1C(=O)N2CCC[C@H]2[C@]2(O)O[C@](NC(=O)[C@@H]3C=C4c5cccc6[nH]c(Br)c(c56)C[C@H]4N(C)C3)(C(C)C)C(=O)N12 [bromocriptine]
  RPE exosome release in response to D2R stimulation: reduces the release of exosomes
